Test results taken from US20180193294A1, “Dehydroabietic acid (DHAA) derivatives for use as ion channel openers” (priority 2015, published 2018).
Values joined by “and” are separate entries in the source; they are usually repeats but may differ in a detail not shown here. Identical values can stand only once. At least one structure is not confirmed: it was looked up by name or label, or the drawing left a doubt. Some of these results come from one statement about several compounds together.

By UniProt entry, the sequences of proteins in these tests, tags left out.
UniProt P08510, whole entry M356R/A359R: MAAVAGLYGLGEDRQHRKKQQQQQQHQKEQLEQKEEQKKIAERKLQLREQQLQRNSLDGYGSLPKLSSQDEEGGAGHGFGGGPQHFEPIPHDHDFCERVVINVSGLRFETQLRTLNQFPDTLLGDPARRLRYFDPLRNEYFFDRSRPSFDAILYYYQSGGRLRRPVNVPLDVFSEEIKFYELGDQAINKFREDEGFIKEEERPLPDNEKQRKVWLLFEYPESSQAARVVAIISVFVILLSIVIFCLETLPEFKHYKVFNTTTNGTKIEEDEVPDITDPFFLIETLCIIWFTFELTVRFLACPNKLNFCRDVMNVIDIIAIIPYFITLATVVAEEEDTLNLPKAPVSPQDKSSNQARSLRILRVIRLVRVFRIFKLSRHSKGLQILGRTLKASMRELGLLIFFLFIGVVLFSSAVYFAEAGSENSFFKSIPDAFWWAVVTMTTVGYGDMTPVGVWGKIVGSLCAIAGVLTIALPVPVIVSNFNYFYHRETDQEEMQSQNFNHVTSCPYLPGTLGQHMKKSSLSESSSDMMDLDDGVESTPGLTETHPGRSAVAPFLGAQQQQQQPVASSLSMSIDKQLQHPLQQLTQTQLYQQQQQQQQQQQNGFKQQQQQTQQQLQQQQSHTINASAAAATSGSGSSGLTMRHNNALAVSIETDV

Biological target: 3R Shaker K channel (Drosophila melanogaster, UniProt P08510, A359R/M356R)
Type: cell-based
Text: A 3R Shaker K channel is a modified Shaker K channel where residues 356 and 359 are mutated to arginines.
All animal experiments were approved by the local Animal Care and Use Committee and followed international guidelines. A modified Shaker H4 channel^30, with removed N-type inactivation (ShH4IR)^31, here called the wild type (WT) channel, was expressed in oocytes. In addition, a modified 3R Shaker K channel where two introduced positive charged arginines (M356R and A359R) in addition to one native arginine (R362) makes the channel more sensitive to DHA^16, was expressed in oocytes and in a CHO—K1 stable cell line.
African clawed frogs (Xenopus laevis) were anesthetized with 1.4 g/L ethyl 3-aminobenzoate methanesulfonate salt (tricaine). After an incision through the abdomen a batch of oocytes were removed. Clusters of oocytes were separated by incubation for ˜1 h in a Ca-free O—R2 solution (in mM: 82.5 NaCl, 2 KCl, 5 HEPES, and 1 MgCl2; pH adjusted to 7.4 by NaOH) containing Liberase Blendzyme. The oocytes were then incubated at 8° C. in a modified Barth's solution (MBS; in mM: 88 NaCl, 1 KCl, 2.4 NaHCO3, 15 HEPES, 0.33 Ca(NO3)2, 0.41 CaCl2, and 0.82 MgSO4; pH adjusted to 7.6 by NaOH) supplemented with penicillin (25 U/ml), streptomycin (25 μg/ml), and sodium pyruvate (2.5 mM) 2-24 hours before injection. Fifty nl of cRNA (50 pg) were injected into each oocyte using a Nanoject injector (Drummond Scientific, Broomall, Pa.). Injected oocytes were kept at 8° C. in MBS until one day before electrophysiological recordings, when they were incubated at 16° C. All chemicals were supplied from Sigma-Aldrich (Stockholm, Sweden) if not stated otherwise.
All manual electrophysiological recordings were performed at room temperature (20-23° C.), using a GeneClamp 500B amplifier (for oocytes) or a Axopatch 200B amplifier (for manual patch clamp of CHO—K1 cells and DRG neurons) and a Digidata 1440A digitizer and pClamp 10 software (all from Molecular Devices, Inc., Sunnyvale, Calif., USA). Compounds were dissolved to 100 mM in 99.5% EtOH and stored at −20° C. Compounds were diluted in extracellular solution to the desired test concentration.
The oocyte was placed in a bath surrounded by 1K extracellular solution that contained (in mM): 88 NaCl, 1 KCl, 15 HEPES, 0.4 CaCl2, and 0.8 MgCl2, pH adjusted to 7.4 by NaOH (reaching a sodium concentration of ˜100 mM). Control solution was added to the bath with a gravity driven perfusion system. Compound solution was added to the bath manually with a syringe. Two glass microelectrodes were inserted into the oocyte using micromanipulators. […] All channels were closed when the potential was clamped to −80 mV and this voltage was set as the holding potential. Currents were evoked from the holding potential of −80 mV by 100-ms long, 5-mV steps ranging from −80 up to +50 mV (WT) and +70 mV (3R).
Conductance GK(V) was calculated as GK(V)=[…], (Eq. 1) where IK is the average current from the steady-state phase at the end of each 100-ms pulse, V is the membrane voltage, and Vrev is the reversal potential for K^+, (set to −80 mV for the oocytes, and calculated to be −89 mV for the CHO—K1 cells).
G(V)=A/(1+exp((V1/2−V)/s))^n (Eq. 2) where A is amplitude of the curve, V is the absolute membrane voltage, V1/2 is the midpoint, s is the slope and n is an exponent set to 4^17. The compound-induced G(V) shift was determined at the 10% level of the maximum conductance in control solution^17. The compound-induced G(V) shift in CHO—K1 was quantified by subtracting the control V1/2 from the compound V1/2 when n was set to 1.
Data for concentration and pH dependent G(V) shifts (ΔV) in oocytes were fit with a dose-response equation ΔV=ΔVmax/(1+c1/2/c), (Eq. 3) where Δvmax is the maximal shift, c1/2 is half maximal effective concentration/pKa value and c is the concentration.

SMILES	concentration that shifts the G(V) by −10 mV (pH 7.4) [µM]	compound-induced G(V) shift (mean±SEM) (100 μM, pH 7.4, Xenopus oocytes)	ΔG(V) of representative G(V) curves (single examples) (100 μM, pH 7.4, same cells as representative traces) [mV]	G(V) shift (Table 1, 100 μM, pH 7.4, Xenopus oocytes) [mV]	maximum shift (dose dependence fit, pH 7.4) [mV]	relative current amplitude (representative traces at voltage giving 10% of maximum conductance in control, 100 μM, pH 7.4) [times]
C[C@@]1(C(=O)O)CCC[C@]2(C)c3cc(Cl)c(Cl)c(Cl)c3CCC12 (stereo partly drawn) [Wu50, (1R,4aS)-6,7,8-trichloro-1,4a-dimethyl-1,2,3,4,4a,9,10,10a-octahydrophenanthrene-1-carboxylic acid]	10 to 12					
CC(C)c1ccc2c(c1)CC[C@H]1[C@](C)(C(=O)O)CCC[C@]21C [DHAA, dehydroabietic acid]	70	−12.1±1.7 mV and −12.1 mV	−15.5	−12.1	−23	4.6
CO/N=C1\CC2[C@](C)(C(=O)O)CCC[C@]2(C)c2cc(Br)c(C(C)C)cc21 (stereo partly drawn) [Wu32, (1R,4aS,E)-6-bromo-7-isopropyl-9-(methoxyimino)-1,4a-dimethyl-1,2,3,4,4a,9,10,10a-octahydrophenanthrene-1-carboxylic acid]	10 to 12					
